Measured values published in paper PMC3162608.
No constants are given. Whether binding was seen depends on the method and setting. Binding seen in cells or lysates may run through a third protein. Some results given as binding are weak or reduced against the parent protein; the word gives no strength.

Sequences of proteins named here, by UniProt entry; tags and fusion partners are left off.
UniProt P02340: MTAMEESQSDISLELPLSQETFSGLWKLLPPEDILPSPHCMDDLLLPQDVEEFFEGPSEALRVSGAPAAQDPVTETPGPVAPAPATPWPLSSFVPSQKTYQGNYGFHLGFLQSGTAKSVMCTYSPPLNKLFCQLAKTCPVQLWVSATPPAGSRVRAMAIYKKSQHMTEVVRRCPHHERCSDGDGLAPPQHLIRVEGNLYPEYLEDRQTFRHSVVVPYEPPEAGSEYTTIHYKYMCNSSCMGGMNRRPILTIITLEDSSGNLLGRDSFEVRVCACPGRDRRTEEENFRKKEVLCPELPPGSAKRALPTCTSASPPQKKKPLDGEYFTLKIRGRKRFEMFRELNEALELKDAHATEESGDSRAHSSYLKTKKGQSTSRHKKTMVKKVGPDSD
UniProt Q04207: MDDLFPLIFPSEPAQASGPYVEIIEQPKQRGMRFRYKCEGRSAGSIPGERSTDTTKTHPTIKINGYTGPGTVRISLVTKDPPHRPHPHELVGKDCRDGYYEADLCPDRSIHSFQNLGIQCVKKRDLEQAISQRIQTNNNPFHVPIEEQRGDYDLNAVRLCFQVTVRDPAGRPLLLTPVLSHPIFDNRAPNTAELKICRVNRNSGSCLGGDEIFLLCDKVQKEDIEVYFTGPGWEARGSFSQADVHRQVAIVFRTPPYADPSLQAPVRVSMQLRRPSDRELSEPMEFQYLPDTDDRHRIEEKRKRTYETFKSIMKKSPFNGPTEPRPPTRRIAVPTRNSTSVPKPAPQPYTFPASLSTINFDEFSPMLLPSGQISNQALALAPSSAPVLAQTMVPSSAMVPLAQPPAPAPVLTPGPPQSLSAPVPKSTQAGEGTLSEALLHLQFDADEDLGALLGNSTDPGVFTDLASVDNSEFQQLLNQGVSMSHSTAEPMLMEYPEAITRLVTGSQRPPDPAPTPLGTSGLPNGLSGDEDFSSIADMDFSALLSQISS

Molecular target: p53 (mouse (endogenous in STHdhQ7/HdhQ7 and STHdhQ111/HdhQ111 cells)) (UniProt P02340)
Test: co-IP; Extracts of STHdhQ7/HdhQ7 and STHdhQ111/HdhQ111 cells in co-IP buffer (50 mM Tris pH 8.0, 150 mM NaCl, 1% NP40, protease inhibitors), pre-cleared, incubated overnight at 4°C with 1 µg anti-p53 antibody, captured on agarose-protein G beads, blotted with anti-p65 antibody

binding: binds
Substance: p65 subunit of NFkB (RelA/NFkB) (from UniProt Q04207 1-549)
